The target in experiment [1] is T1, ANKRD26 bait 17, interacting region aa 1320–1535 (human) (UniProt Q9UPS8).
T1 sequence: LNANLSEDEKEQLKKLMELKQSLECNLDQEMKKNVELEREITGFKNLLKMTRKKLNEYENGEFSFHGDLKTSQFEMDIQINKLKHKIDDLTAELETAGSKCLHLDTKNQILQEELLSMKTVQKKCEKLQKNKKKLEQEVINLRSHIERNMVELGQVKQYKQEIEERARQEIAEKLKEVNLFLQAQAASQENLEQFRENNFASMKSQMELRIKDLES
Put plainly: two-hybrid; GAL4-based screen by Myriad Genetics: 18 overlapping ANKRD26 fragments as baits (fused to Gal4 DNA binding domain) in PNY200, mated with cDNA library preys (human brain, human testis, mouse 11.5-day embryo; fused to Gal4 activation domain) in BK100; confirmed in naive yeast by liquid culture beta-galactosidase assays.

Experiment [2] has as its target T2, ANKRD26 bait 10, interacting region aa 1519–1702 (human) (UniProt Q9UPS8).
T2 sequence: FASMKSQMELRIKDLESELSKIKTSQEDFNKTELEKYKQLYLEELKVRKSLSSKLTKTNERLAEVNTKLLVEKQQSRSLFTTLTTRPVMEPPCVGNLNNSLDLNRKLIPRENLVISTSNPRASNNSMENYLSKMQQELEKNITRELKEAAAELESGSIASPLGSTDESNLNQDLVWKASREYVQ
The experiment is described as above.

No constants are given. Whether binding was seen depends on the method and setting. Binding can be weak; no strength is given.

Regarding “Chromosome 1 open reading frame 9, isoform 1 (two-hybrid prey) (human)”, the binding result in experiment [1] is “binds”.

As to Fb1 (two-hybrid prey) (mouse), the binding entry in experiment [1] is on record as “binds”.

Take “Triple functional domain (PTPRF interacting), isoform 5 (two-hybrid prey) (mouse)”: the binding entry in experiment [2] is recorded as “binds”.
